This note sets out measurements from article PMC10086742.

Protein sequences, listed by entry. Tags and fused reporters are not part of them. Residues count along the entry.
UniProt P40763: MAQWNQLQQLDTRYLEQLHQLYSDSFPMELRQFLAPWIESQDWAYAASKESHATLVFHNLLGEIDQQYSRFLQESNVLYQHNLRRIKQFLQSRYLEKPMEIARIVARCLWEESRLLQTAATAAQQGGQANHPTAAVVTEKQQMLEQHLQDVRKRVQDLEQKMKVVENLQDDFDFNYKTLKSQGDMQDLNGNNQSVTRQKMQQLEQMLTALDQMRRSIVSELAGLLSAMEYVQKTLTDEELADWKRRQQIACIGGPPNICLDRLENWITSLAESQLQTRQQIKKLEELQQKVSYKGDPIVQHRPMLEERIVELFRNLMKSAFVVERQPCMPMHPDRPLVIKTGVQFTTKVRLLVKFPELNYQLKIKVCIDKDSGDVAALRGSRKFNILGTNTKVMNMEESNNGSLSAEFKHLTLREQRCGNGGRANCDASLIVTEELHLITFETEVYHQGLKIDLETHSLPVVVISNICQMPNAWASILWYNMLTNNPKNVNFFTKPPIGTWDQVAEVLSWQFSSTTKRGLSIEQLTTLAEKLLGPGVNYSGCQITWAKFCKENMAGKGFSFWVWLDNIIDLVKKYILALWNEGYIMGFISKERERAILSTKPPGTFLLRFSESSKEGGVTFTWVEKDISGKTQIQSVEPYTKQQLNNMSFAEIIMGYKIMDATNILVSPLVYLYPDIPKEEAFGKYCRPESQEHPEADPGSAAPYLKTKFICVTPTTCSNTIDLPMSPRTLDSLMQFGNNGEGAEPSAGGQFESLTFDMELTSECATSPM
UniProt Q9NZQ7, residues 19-290: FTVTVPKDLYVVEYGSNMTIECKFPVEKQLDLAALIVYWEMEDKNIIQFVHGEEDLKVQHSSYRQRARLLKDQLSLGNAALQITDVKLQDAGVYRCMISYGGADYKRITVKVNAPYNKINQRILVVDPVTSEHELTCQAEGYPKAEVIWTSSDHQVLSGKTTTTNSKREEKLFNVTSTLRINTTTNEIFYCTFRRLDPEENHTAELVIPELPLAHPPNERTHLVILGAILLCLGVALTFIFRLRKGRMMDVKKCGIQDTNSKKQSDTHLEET

These are yes or no findings as the source states them, for the method shown. In cells and extracts the contact can be indirect. Some entries that bind do so weakly or less than the wild type.

The target in the assay is p-Y705-Stat3 (Stat3 phosphorylated on Tyr705) (human (endogenous in peripheral blood neutrophils)) (UniProt P40763). As to the kind of experiment: co-IP; lysates of neutrophils from healthy subjects and septic patients in IP buffer with protease inhibitors; anti-p-Y705-Stat3 antibody 12 hours at 4°C, Protein A/G agarose 2 hours; western blot with anti-PD-L1. (A western blot detects proteins with antibodies after separation by electrophoresis.)

Take “programmed death ligand 1 (PD-L1) (from UniProt Q9NZQ7 19-290)”: the binding entry was “binds”.
